Taken from: PubChem BioAssay AID652272 (Drosophila RNAi Screening Center, 2013)

Screen: 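Genes whose knock-down decreases or increases Hedgehog reporter output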 (primary screen)
Cell system: Drosophila clone 8 (Cl8) cells
Reagent: long dsRNA against Drosophila genes
Detection: 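Firefly light from a Hedgehog-responsive ptc promoter reporter and Renilla reference light, both read on a plate reader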
Scale: firefly Hh reporter signal: higher = more ptc reporter light; Renilla reference signal: higher = more Renilla control light
Hit rule: 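Called a hit if the two-replicate mean z-score lies below -2 or above +3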
Meaning of the calls: active = hit: reporter lowered or raised; inactive = not a hit
In all, the deposit lists about 21,000 reagents; below is a random part of those with a known target gene and a result. Of all reagents, 503 (2.4%) were called active. 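Raw plate light values, not normalised; calls rest on replicate z-scores that were not deposited; hits include reporter decreases as well as increases.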 Reagent sequences are not shown. Not stated in the record: the amount of reagent, the time to read-out.

CG8673 [DRSC03105] | firefly Hh reporter signal, replicate 1: 94545; firefly Hh reporter signal, replicate 2: 41654; Renilla reference signal, replicate 1: 2988; Renilla reference signal, replicate 2: 4028; activity call: inactive
CG16812 [DRSC02519] | firefly Hh reporter signal, replicate 1: 72592; firefly Hh reporter signal, replicate 2: 56928; Renilla reference signal, replicate 1: 3056; Renilla reference signal, replicate 2: 2416; activity call: inactive
CG11807 [DRSC06087] | firefly Hh reporter signal, replicate 1: 91804; firefly Hh reporter signal, replicate 2: 77267; Renilla reference signal, replicate 1: 3408; Renilla reference signal, replicate 2: 3072; activity call: inactive
sdk [DRSC18831] | firefly Hh reporter signal, replicate 1: 1.00e5; firefly Hh reporter signal, replicate 2: 88800; Renilla reference signal, replicate 1: 2491; Renilla reference signal, replicate 2: 2546; activity call: inactive
PIG-L [DRSC15577] | firefly Hh reporter signal, replicate 1: 5.71e5; firefly Hh reporter signal, replicate 2: 98901; Renilla reference signal, replicate 1: 28128; Renilla reference signal, replicate 2: 2680; activity call: inactive
CR17438 [DRSC18125] | firefly Hh reporter signal, replicate 1: 86768; firefly Hh reporter signal, replicate 2: 3.06e5; Renilla reference signal, replicate 1: 2816; Renilla reference signal, replicate 2: 10907; activity call: inactive
Acp76A [DRSC09665] | firefly Hh reporter signal, replicate 1: 75914; firefly Hh reporter signal, replicate 2: 1.24e5; Renilla reference signal, replicate 1: 2597; Renilla reference signal, replicate 2: 3289; activity call: inactive
Cdk7 [DRSC18451] | firefly Hh reporter signal, replicate 1: 68016; firefly Hh reporter signal, replicate 2: 1.81e5; Renilla reference signal, replicate 1: 1629; Renilla reference signal, replicate 2: 5910; activity call: inactive
MICU1 [DRSC02752] | firefly Hh reporter signal, replicate 1: 34960; firefly Hh reporter signal, replicate 2: 64005; Renilla reference signal, replicate 1: 1907; Renilla reference signal, replicate 2: 2515; activity call: inactive
Syx6 [DRSC07032] | firefly Hh reporter signal, replicate 1: 68976; firefly Hh reporter signal, replicate 2: 65606; Renilla reference signal, replicate 1: 2676; Renilla reference signal, replicate 2: 2336; activity call: inactive

3 entries already listed, sorted by “firefly Hh reporter signal, replicate 2”, low to high:
MICU1 [DRSC02752] | firefly Hh reporter signal, replicate 1: 34960; firefly Hh reporter signal, replicate 2: 64005; Renilla reference signal, replicate 1: 1907; Renilla reference signal, replicate 2: 2515; activity call: inactive
Syx6 [DRSC07032] | firefly Hh reporter signal, replicate 1: 68976; firefly Hh reporter signal, replicate 2: 65606; Renilla reference signal, replicate 1: 2676; Renilla reference signal, replicate 2: 2336; activity call: inactive
Cdk7 [DRSC18451] | firefly Hh reporter signal, replicate 1: 68016; firefly Hh reporter signal, replicate 2: 1.81e5; Renilla reference signal, replicate 1: 1629; Renilla reference signal, replicate 2: 5910; activity call: inactive

Next reagents follow.
Asciz [DRSC08421] | firefly Hh reporter signal, replicate 1: 80499; firefly Hh reporter signal, replicate 2: 29028; Renilla reference signal, replicate 1: 2016; Renilla reference signal, replicate 2: 739; activity call: inactive
para [DRSC19141] | firefly Hh reporter signal, replicate 1: 7.93e5; firefly Hh reporter signal, replicate 2: 3.18e5; Renilla reference signal, replicate 1: 45952; Renilla reference signal, replicate 2: 7143; activity call: inactive
para [DRSC20360] | firefly Hh reporter signal, replicate 1: 92903; firefly Hh reporter signal, replicate 2: 2.38e5; Renilla reference signal, replicate 1: 2069; Renilla reference signal, replicate 2: 9588; activity call: inactive
elgi [DRSC10242] | firefly Hh reporter signal, replicate 1: 1.00e5; firefly Hh reporter signal, replicate 2: 50032; Renilla reference signal, replicate 1: 3971; Renilla reference signal, replicate 2: 1884; activity call: inactive
VhaAC39-1 [DRSC18242] | firefly Hh reporter signal, replicate 1: 1.68e5; firefly Hh reporter signal, replicate 2: 1.11e5; Renilla reference signal, replicate 1: 3544; Renilla reference signal, replicate 2: 3495; activity call: inactive
CG13310 [DRSC09981] | firefly Hh reporter signal, replicate 1: 37563; firefly Hh reporter signal, replicate 2: 57335; Renilla reference signal, replicate 1: 1256; Renilla reference signal, replicate 2: 4208; activity call: inactive
moon [DRSC19497] | firefly Hh reporter signal, replicate 1: 78567; firefly Hh reporter signal, replicate 2: 2.47e5; Renilla reference signal, replicate 1: 1270; Renilla reference signal, replicate 2: 9309; activity call: inactive
FASN1 [DRSC00268] | firefly Hh reporter signal, replicate 1: 55888; firefly Hh reporter signal, replicate 2: 55805; Renilla reference signal, replicate 1: 3412; Renilla reference signal, replicate 2: 2930; activity call: inactive
CG31205 [DRSC13438] | firefly Hh reporter signal, replicate 1: 52897; firefly Hh reporter signal, replicate 2: 1.52e5; Renilla reference signal, replicate 1: 11249; Renilla reference signal, replicate 2: 3834; activity call: inactive
CG15279 [DRSC01935] | firefly Hh reporter signal, replicate 1: 88032; firefly Hh reporter signal, replicate 2: 43284; Renilla reference signal, replicate 1: 3328; Renilla reference signal, replicate 2: 1801; activity call: inactive
CG18368 [DRSC06731] | firefly Hh reporter signal, replicate 1: 87760; firefly Hh reporter signal, replicate 2: 54484; Renilla reference signal, replicate 1: 2395; Renilla reference signal, replicate 2: 4643; activity call: inactive
